# Data: the supplement of paper PMC8728848
# Some of the results follow.
# Legend:
# Experiment in all cases: glycan array binding signal (z-score within array); higher = stronger binding
# Conditions in all cases: glycan notation: IUPAC condensed, linker removed
# [1] = biological target: Fuc(a1-2)Gal(b1-4)[Fuc(a1-3)]GlcNAc
# In short: (§1)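 Glycan array binding is given as a within-array Z-score, which can be read as non-binding when negative. The arrays, 3228 of them, came from the Consortium for Functional Glycomics database and were retained only where the protein sequence was available. Z-scores were averaged across arrays of the same protein sequence at different concentrations or buffers and across linkers.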
# [2] = biological target: Fuc(a1-2)Gal(b1-4)[Fuc(a1-3)]GlcNAc(b1-2)Man(a1-3)[Fuc(a1-2)Gal(b1-4)[Fuc(a1-3)]GlcNAc(b1-2)Man(a1-6)]Man(b1-4)GlcNAc(b1-4)GlcNAc
# In short: as §1
# [3] = biological target: Fuc(a1-2)Gal(b1-4)[Fuc(a1-3)]GlcNAc(b1-2)[Fuc(a1-2)Gal(b1-4)[Fuc(a1-3)]GlcNAc(b1-4)]Man(a1-3)[Fuc(a1-2)Gal(b1-4)[Fuc(a1-3)]GlcNAc(b1-2)Man(a1-6)]Man(b1-4)GlcNAc(b1-4)GlcNAc
# In short: as §1
# [4] = biological target: Fuc(a1-2)Gal(b1-4)[Fuc(a1-3)]GlcNAc(b1-3)Gal(b1-4)[Fuc(a1-3)]GlcNAc
# In short: as §1
# [5] = biological target: Fuc(a1-2)Gal(b1-4)[Fuc(a1-3)]GlcNAc(b1-3)Gal(b1-4)[Fuc(a1-3)]GlcNAc(b1-3)Gal(b1-4)[Fuc(a1-3)]GlcNAc
# In short: as §1
# [6] = biological target: Fuc(a1-2)Gal(b1-4)[Fuc(a1-3)]GlcNAc(b1-3)GalNAc
# In short: as §1
# Fuc(a1-2)Gal6S(b1-4)Glc = biological target: Fuc(a1-2)Gal6S(b1-4)Glc
# In short: as §1
# [7] = biological target: Fuc(a1-2)Gal6S(b1-4)Glc6S
# In short: as §1
# [8] = biological target: Fuc(a1-2)Gal6S(b1-4)GlcNAc
# In short: as §1
# Fuc(a1-2)[Gal(a1-3)]Gal = biological target: Fuc(a1-2)[Gal(a1-3)]Gal
# In short: as §1
# [9] = biological target: Fuc(a1-2)[Gal(a1-3)]Gal(b1-3)GalNAc
# In short: as §1
# [10] = biological target: Fuc(a1-2)[Gal(a1-3)]Gal(b1-3)GlcNAc
# In short: as §1
# [11] = biological target: Fuc(a1-2)[Gal(a1-3)]Gal(b1-3)GlcNAc(b1-2)Man(a1-3)[Fuc(a1-2)[Gal(a1-3)]Gal(b1-3)GlcNAc(b1-2)Man(a1-6)]Man(b1-4)GlcNAc(b1-4)GlcNAc
# In short: as §1
# [12] = biological target: Fuc(a1-2)[Gal(a1-3)]Gal(b1-3)GlcNAc(b1-2)Man(a1-3)[Fuc(a1-2)[Gal(a1-3)]Gal(b1-3)GlcNAc(b1-2)Man(a1-6)]Man(b1-4)GlcNAc(b1-4)[Fuc(a1-6)]GlcNAc
# In short: as §1
# [13] = biological target: Fuc(a1-2)[Gal(a1-3)]Gal(b1-3)GlcNAc(b1-3)GalNAc
# In short: as §1
# [14] = biological target: Fuc(a1-2)[Gal(a1-3)]Gal(b1-4)Glc
# In short: as §1
# [15] = biological target: Fuc(a1-2)[Gal(a1-3)]Gal(b1-4)GlcNAc
# In short: as §1
# [16] = biological target: Fuc(a1-2)[Gal(a1-3)]Gal(b1-4)GlcNAc(b1-2)Man(a1-3)[Fuc(a1-2)[Gal(a1-3)]Gal(b1-4)GlcNAc(b1-2)Man(a1-6)]Man(b1-4)GlcNAc(b1-4)GlcNAc
# In short: as §1
# [17] = biological target: Fuc(a1-2)[Gal(a1-3)]Gal(b1-4)GlcNAc(b1-2)Man(a1-3)[Fuc(a1-2)[Gal(a1-3)]Gal(b1-4)GlcNAc(b1-2)Man(a1-6)]Man(b1-4)GlcNAc(b1-4)[Fuc(a1-6)]GlcNAc
# In short: as §1
# [18] = biological target: Fuc(a1-2)[Gal(a1-3)]Gal(b1-4)GlcNAc(b1-3)GalNAc
# In short: as §1
# [19] = biological target: Fuc(a1-2)[Gal(a1-3)]Gal(b1-4)[Fuc(a1-3)]Glc
# In short: as §1
# [20] = biological target: Fuc(a1-2)[Gal(a1-3)]Gal(b1-4)[Fuc(a1-3)]GlcNAc
# In short: as §1
# [21] = biological target: Fuc(a1-2)[Gal(a1-3)]Gal(b1-4)[Fuc(a1-3)]GlcNAc(b1-3)GalNAc
# In short: as §1
# [22] = biological target: Fuc(a1-2)[Gal(a1-4)]Gal(b1-4)GlcNAc
# In short: as §1
# [23] = biological target: Fuc(a1-2)[GalNAc(a1-3)]Gal
# In short: as §1
# [24] = biological target: Fuc(a1-2)[GalNAc(a1-3)]Gal(b1-3)GalNAc(a1-3)[Fuc(a1-2)]Gal(b1-4)GlcNAc
# In short: as §1
# [25] = biological target: Fuc(a1-2)[GalNAc(a1-3)]Gal(b1-3)GlcNAc
# In short: as §1
# [26] = biological target: Fuc(a1-2)[GalNAc(a1-3)]Gal(b1-3)GlcNAc(b1-2)Man(a1-3)[Fuc(a1-2)[GalNAc(a1-3)]Gal(b1-3)GlcNAc(b1-2)Man(a1-6)]Man(b1-4)GlcNAc(b1-4)GlcNAc
# In short: as §1
# [27] = biological target: Fuc(a1-2)[GalNAc(a1-3)]Gal(b1-3)GlcNAc(b1-2)Man(a1-3)[Fuc(a1-2)[GalNAc(a1-3)]Gal(b1-3)GlcNAc(b1-2)Man(a1-6)]Man(b1-4)GlcNAc(b1-4)[Fuc(a1-6)]GlcNAc
# In short: as §1
# [28] = biological target: Fuc(a1-2)[GalNAc(a1-3)]Gal(b1-3)GlcNAc(b1-3)GalNAc
# In short: as §1
# [29] = biological target: Fuc(a1-2)[GalNAc(a1-3)]Gal(b1-4)Glc
# In short: as §1
# [30] = biological target: Fuc(a1-2)[GalNAc(a1-3)]Gal(b1-4)GlcNAc
# In short: as §1
# [31] = biological target: Fuc(a1-2)[GalNAc(a1-3)]Gal(b1-4)GlcNAc(b1-2)Man(a1-3)[Fuc(a1-2)[GalNAc(a1-3)]Gal(b1-4)GlcNAc(b1-2)Man(a1-6)]Man(b1-4)GlcNAc(b1-4)GlcNAc
# In short: as §1
# [32] = biological target: Fuc(a1-2)[GalNAc(a1-3)]Gal(b1-4)GlcNAc(b1-2)Man(a1-3)[Fuc(a1-2)[GalNAc(a1-3)]Gal(b1-4)GlcNAc(b1-2)Man(a1-6)]Man(b1-4)GlcNAc(b1-4)[Fuc(a1-6)]GlcNAc
# In short: as §1
# [33] = biological target: Fuc(a1-2)[GalNAc(a1-3)]Gal(b1-4)GlcNAc(b1-3)Gal(b1-4)GlcNAc
# In short: as §1
# [34] = biological target: Fuc(a1-2)[GalNAc(a1-3)]Gal(b1-4)GlcNAc(b1-3)Gal(b1-4)GlcNAc(b1-3)Gal(b1-4)GlcNAc
# In short: as §1
# [35] = biological target: Fuc(a1-2)[GalNAc(a1-3)]Gal(b1-4)GlcNAc(b1-3)GalNAc
# In short: as §1
# [36] = biological target: Fuc(a1-2)[GalNAc(a1-3)]Gal(b1-4)[Fuc(a1-3)]GlcNAc
# In short: as §1
# [37] = biological target: Fuc(a1-2)[GalNAc(a1-3)]Gal(b1-4)[Fuc(a1-3)]GlcNAc(b1-3)GalNAc
# In short: as §1
# [38] = biological target: Fuc(a1-2)[GalNAc(a1-4)]Gal(b1-4)GlcNAc
# In short: as §1
# [39] = biological target: Fuc(a1-2)[GalNAc(b1-3)]Gal
# In short: as §1
# Fuc(a1-3)GlcNAc = biological target: Fuc(a1-3)GlcNAc
# In short: as §1
# [40] = biological target: Fuc(a1-3)[Gal(b1-4)]Glc6S
# In short: as §1
# [41] = biological target: Fuc(a1-3)[Gal(b1-4)]GlcNAc
# In short: as §1
# [42] = biological target: Fuc(a1-3)[Gal(b1-4)]GlcNAc(b1-2)Man(a1-3)[Fuc(a1-3)[Gal(b1-4)]GlcNAc(b1-2)Man(a1-6)]Man(b1-4)GlcNAc(b1-4)GlcNAc
# In short: as §1
binder,measurement,setting,value
"Layilin (Mus musculus), Q8C351 (protein) MQPGAALQAMLLAVLLAKPRDSKGRLLSASDLDPRGGQLVCRGGTRRPCYKVIYFHDAFQRLNFEEAKETCMEDGGQLVSIETEDEQRLIEKFIENLLASDGDFWIGLKRLEEKQSNNTACQDLYAWTDGSTSQFRNWYVDEPSCGSEVCVVMYHQPSAPPGIGGSYMFQWNDDRCNMKNNFICKYHDDKPSTTPSIWPGGEATEPATPLLPEETQKEDTKETFKERREAALNLAYILIPSIPLFLLLVVTSAVCWVWICRRKREQTDPSTKEQHTIWPTPRQENSPNLDVYNVIRKQSEADLAEPRPDLKNISFRVCSGEAMPDDMSCDYENIAVNPSESGFVTLASMESGFVTNDIYEFSPDRMGRSKESGWVENEIYY",glycan array binding signal (z-score),[1],-0.045
same,glycan array binding signal (z-score),[2],2.69
same,glycan array binding signal (z-score),[3],2.52
same,glycan array binding signal (z-score),[4],-0.228
same,glycan array binding signal (z-score),[5],-0.201
same,glycan array binding signal (z-score),[6],4.74
same,glycan array binding signal (z-score),Fuc(a1-2)Gal6S(b1-4)Glc,-0.77
same,glycan array binding signal (z-score),[7],0.095
same,glycan array binding signal (z-score),[8],0.187
same,glycan array binding signal (z-score),Fuc(a1-2)[Gal(a1-3)]Gal,1.35
same,glycan array binding signal (z-score),[9],0.28
same,glycan array binding signal (z-score),[10],2.33
same,glycan array binding signal (z-score),[11],1.05
same,glycan array binding signal (z-score),[12],-0.347
same,glycan array binding signal (z-score),[13],-0.382
same,glycan array binding signal (z-score),[14],-0.634
same,glycan array binding signal (z-score),[15],0.143
same,glycan array binding signal (z-score),[16],0.449
same,glycan array binding signal (z-score),[17],-0.28
same,glycan array binding signal (z-score),[18],-0.073
same,glycan array binding signal (z-score),[19],-0.648
same,glycan array binding signal (z-score),[20],1.88
same,glycan array binding signal (z-score),[21],2.54
same,glycan array binding signal (z-score),[22],-0.606
same,glycan array binding signal (z-score),[23],-0.501
same,glycan array binding signal (z-score),[24],0.394
same,glycan array binding signal (z-score),[25],-0.196
same,glycan array binding signal (z-score),[26],0.941
same,glycan array binding signal (z-score),[27],-0.021
same,glycan array binding signal (z-score),[28],1.54
same,glycan array binding signal (z-score),[29],-0.577
same,glycan array binding signal (z-score),[30],0.73
same,glycan array binding signal (z-score),[31],0.056
same,glycan array binding signal (z-score),[32],-0.512
same,glycan array binding signal (z-score),[33],-1.24
same,glycan array binding signal (z-score),[34],0.481
same,glycan array binding signal (z-score),[35],1.35
same,glycan array binding signal (z-score),[36],1.01
same,glycan array binding signal (z-score),[37],2.16
same,glycan array binding signal (z-score),[38],-0.629
same,glycan array binding signal (z-score),[39],-1.12
same,glycan array binding signal (z-score),Fuc(a1-3)GlcNAc,0.905
same,glycan array binding signal (z-score),[40],-0.93
same,glycan array binding signal (z-score),[41],-0.489
same,glycan array binding signal (z-score),[42],-0.753

# Reprinted at random: 2 entries already listed.
binder,measurement,setting,value
"Layilin (Mus musculus), Q8C351 (protein) MQPGAALQAMLLAVLLAKPRDSKGRLLSASDLDPRGGQLVCRGGTRRPCYKVIYFHDAFQRLNFEEAKETCMEDGGQLVSIETEDEQRLIEKFIENLLASDGDFWIGLKRLEEKQSNNTACQDLYAWTDGSTSQFRNWYVDEPSCGSEVCVVMYHQPSAPPGIGGSYMFQWNDDRCNMKNNFICKYHDDKPSTTPSIWPGGEATEPATPLLPEETQKEDTKETFKERREAALNLAYILIPSIPLFLLLVVTSAVCWVWICRRKREQTDPSTKEQHTIWPTPRQENSPNLDVYNVIRKQSEADLAEPRPDLKNISFRVCSGEAMPDDMSCDYENIAVNPSESGFVTLASMESGFVTNDIYEFSPDRMGRSKESGWVENEIYY",glycan array binding signal (z-score),[11],1.05
same,glycan array binding signal (z-score),[24],0.394
